Measurements as given in the supplement of paper PMC6411743.
± gives the standard deviation of the averaged measurements. The list shows a part of the results.

Amino acid sequences for entries named in this document (tags omitted). A change or cut given only in a name is not applied to a line headed by its entry.
UniProt Q5BKZ1: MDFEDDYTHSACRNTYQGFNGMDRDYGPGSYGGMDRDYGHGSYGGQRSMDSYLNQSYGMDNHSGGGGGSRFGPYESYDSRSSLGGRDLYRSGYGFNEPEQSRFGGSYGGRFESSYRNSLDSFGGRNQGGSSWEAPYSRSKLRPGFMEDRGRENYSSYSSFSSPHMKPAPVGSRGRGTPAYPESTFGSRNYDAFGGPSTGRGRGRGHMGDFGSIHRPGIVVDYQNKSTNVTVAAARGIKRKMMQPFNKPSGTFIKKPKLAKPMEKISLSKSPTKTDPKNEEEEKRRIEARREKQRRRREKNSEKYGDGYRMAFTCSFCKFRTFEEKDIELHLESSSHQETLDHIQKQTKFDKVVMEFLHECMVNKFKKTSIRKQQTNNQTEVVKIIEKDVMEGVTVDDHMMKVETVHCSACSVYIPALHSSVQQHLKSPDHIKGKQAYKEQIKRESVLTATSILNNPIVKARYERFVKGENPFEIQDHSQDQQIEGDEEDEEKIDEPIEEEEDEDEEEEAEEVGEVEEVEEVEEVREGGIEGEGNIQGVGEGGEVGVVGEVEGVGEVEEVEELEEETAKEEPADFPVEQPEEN
UniProt Q5T1M5: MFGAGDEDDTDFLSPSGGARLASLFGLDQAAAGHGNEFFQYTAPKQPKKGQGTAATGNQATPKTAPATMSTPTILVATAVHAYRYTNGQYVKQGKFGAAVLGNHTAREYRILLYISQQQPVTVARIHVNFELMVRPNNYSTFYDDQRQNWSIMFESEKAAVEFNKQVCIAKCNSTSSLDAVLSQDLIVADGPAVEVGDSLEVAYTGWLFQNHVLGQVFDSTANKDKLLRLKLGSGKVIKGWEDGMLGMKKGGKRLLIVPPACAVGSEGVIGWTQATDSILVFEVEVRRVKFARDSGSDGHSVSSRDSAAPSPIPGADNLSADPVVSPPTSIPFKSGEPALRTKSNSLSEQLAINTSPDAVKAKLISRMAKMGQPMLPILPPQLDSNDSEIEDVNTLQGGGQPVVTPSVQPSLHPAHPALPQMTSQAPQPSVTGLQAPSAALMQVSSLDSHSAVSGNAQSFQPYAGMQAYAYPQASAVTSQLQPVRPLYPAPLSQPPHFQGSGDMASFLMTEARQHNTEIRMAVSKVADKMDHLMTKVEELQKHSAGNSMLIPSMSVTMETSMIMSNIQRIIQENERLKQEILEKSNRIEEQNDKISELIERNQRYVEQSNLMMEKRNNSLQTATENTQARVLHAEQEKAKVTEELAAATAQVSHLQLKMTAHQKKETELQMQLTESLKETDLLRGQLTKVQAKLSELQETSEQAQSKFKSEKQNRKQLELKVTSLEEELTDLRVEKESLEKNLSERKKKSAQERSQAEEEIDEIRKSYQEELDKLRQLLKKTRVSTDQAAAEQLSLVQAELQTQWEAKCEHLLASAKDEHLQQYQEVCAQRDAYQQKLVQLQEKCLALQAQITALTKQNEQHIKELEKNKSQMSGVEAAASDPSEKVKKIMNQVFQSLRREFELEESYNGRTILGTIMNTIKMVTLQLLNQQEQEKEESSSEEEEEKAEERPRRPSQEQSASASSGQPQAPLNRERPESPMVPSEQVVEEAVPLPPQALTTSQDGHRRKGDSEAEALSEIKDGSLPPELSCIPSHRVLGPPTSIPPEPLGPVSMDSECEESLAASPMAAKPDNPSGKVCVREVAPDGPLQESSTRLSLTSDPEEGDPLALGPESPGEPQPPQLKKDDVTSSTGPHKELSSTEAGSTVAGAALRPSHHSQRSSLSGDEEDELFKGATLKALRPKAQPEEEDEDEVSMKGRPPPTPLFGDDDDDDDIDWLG
UniProt Q56VL3: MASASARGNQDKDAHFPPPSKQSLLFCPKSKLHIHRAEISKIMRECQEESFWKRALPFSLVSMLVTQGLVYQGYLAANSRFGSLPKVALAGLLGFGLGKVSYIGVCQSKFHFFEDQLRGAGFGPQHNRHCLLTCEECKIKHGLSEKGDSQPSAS
UniProt Q15054: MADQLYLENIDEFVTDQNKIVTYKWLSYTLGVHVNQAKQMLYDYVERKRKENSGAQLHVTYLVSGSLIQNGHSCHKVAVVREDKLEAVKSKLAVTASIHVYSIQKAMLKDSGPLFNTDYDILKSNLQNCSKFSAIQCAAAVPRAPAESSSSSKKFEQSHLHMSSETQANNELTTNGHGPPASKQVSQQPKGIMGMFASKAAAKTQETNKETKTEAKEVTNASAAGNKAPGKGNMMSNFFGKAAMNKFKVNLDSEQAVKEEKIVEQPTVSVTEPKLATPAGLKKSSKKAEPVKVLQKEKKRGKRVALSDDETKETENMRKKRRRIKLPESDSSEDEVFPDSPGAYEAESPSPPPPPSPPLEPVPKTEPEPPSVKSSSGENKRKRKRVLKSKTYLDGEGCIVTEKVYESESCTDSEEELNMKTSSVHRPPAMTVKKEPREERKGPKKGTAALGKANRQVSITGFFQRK
UniProt Q15059, whole entry, looked up: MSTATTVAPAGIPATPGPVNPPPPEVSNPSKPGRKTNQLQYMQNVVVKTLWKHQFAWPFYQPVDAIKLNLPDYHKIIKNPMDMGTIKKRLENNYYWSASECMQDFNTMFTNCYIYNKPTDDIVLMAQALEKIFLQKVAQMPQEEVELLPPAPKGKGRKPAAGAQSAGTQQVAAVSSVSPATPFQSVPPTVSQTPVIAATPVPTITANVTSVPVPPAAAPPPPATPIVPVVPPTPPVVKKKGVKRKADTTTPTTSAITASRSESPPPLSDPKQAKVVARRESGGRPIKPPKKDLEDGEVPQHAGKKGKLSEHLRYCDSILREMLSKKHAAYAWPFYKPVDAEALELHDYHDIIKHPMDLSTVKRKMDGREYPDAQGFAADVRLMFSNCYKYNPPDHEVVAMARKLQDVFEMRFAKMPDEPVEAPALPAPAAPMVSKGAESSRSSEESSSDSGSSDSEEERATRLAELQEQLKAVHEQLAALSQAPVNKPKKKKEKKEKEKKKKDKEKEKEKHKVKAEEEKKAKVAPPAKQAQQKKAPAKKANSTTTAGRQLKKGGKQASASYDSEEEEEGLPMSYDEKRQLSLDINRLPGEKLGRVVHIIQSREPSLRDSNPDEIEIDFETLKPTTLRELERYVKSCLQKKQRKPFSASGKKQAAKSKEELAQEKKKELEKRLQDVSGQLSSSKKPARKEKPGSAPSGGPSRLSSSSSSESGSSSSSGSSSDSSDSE
UniProt Q15208: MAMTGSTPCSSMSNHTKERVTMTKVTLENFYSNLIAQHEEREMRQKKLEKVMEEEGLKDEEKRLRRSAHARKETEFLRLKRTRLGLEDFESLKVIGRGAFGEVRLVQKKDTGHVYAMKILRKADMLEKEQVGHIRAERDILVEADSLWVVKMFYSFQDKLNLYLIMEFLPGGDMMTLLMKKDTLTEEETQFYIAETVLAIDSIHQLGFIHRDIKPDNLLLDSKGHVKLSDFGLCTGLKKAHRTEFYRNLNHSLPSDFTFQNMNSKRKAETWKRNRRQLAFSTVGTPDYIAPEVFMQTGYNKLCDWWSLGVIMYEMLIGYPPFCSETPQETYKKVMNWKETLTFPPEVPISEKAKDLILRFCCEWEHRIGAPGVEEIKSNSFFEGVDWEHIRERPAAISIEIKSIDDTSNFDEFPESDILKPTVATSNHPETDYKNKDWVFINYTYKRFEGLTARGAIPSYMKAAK
UniProt Q49B96: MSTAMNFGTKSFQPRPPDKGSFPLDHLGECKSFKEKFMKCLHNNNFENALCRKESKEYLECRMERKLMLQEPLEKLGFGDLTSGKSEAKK
UniProt Q32P51: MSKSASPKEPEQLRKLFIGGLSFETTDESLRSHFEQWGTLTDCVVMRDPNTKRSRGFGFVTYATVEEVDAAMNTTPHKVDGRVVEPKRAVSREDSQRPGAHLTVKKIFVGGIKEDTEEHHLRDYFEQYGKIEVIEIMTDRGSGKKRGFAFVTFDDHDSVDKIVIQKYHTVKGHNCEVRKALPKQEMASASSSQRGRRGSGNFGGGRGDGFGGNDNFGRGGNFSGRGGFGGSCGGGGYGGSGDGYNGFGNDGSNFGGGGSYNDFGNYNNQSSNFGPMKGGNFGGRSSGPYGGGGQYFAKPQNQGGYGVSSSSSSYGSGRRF
UniProt Q5T6F2: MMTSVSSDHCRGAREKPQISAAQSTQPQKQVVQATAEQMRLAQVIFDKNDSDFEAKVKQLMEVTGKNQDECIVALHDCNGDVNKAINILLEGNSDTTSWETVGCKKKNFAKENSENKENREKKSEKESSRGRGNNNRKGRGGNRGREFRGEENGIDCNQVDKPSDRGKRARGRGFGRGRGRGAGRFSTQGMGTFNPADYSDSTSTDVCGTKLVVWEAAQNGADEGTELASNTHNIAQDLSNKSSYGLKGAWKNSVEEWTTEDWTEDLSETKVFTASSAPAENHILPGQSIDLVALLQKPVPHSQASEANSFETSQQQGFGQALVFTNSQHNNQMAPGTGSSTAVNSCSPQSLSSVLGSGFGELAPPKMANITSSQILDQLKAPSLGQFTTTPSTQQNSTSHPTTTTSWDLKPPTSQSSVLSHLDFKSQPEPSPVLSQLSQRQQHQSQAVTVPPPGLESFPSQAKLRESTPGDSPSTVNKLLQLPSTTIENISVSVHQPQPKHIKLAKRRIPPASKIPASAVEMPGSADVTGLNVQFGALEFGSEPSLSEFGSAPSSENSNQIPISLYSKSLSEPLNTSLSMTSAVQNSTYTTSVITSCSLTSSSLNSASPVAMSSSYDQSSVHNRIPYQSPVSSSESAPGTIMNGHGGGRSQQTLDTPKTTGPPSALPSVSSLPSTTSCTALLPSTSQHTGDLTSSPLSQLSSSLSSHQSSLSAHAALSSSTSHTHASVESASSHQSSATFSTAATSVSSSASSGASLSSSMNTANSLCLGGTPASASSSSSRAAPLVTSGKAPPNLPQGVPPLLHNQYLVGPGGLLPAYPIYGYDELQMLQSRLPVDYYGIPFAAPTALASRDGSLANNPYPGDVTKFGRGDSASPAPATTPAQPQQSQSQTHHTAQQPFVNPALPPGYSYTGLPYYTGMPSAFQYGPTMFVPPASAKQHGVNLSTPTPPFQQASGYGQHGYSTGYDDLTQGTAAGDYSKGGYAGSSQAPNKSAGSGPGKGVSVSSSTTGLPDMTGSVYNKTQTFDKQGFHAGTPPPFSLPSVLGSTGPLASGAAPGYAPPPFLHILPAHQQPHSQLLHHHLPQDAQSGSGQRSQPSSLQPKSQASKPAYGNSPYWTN
UniProt Q15428: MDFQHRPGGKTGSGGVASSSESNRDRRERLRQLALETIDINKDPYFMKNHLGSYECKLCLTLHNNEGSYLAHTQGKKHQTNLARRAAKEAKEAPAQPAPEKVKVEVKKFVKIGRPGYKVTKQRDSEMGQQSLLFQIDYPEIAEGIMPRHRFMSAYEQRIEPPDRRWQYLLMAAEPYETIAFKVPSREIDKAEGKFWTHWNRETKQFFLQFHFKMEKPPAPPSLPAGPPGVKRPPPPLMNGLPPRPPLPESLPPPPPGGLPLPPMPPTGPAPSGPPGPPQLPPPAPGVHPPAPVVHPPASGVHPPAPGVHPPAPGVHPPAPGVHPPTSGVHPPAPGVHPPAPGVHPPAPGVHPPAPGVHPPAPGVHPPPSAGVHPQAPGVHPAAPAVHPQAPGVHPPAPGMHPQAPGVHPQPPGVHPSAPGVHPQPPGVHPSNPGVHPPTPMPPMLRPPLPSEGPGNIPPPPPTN
UniProt Q15717, whole entry: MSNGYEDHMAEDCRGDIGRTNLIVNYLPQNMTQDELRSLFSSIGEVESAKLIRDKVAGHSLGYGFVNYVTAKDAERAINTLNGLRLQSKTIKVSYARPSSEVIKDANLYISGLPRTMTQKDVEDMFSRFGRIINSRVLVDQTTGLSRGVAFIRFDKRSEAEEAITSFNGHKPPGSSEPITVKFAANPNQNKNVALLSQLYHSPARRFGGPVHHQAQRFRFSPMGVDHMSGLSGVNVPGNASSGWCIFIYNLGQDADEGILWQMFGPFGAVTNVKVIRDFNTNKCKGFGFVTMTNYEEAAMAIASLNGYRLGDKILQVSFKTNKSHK
UniProt Q15084: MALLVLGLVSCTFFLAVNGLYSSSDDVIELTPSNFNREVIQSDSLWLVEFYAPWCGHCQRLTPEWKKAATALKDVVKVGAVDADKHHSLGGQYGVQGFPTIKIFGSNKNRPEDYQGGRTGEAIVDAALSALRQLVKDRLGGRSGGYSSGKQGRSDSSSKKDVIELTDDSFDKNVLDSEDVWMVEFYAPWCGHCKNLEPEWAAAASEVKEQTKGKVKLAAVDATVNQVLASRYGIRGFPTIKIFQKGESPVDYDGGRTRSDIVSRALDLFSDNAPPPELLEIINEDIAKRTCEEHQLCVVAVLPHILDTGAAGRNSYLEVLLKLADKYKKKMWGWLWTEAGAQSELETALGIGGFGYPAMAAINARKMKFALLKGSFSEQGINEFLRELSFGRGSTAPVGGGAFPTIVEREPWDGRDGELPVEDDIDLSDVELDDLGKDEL

compound: Nc1nc2c(ncn2[C@@H]2O[C@H](COP(=O)(O)OP(=O)(O)OP(=O)(O)O)[C@@H](O)[C@H]2O)c(=O)[nH]1 [guanosine triphosphate]; assay: NP40-soluble protein abundance relative to vehicle (solubility fold change) (ratio); higher = more soluble protein in presence of GTP; conditions: concentration: 2mM
Method in brief: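 Eight concentrations, 0.1 to 10 mM, were tested on Jurkat crude lysate for 10 min at room temperature and then 3 min at 37 °C, in three independent experiments. The lysate was solubilised with 0.8% NP40 and benzonase, ultracentrifuged, and the supernatant TMT-labelled for LC-MS/MS. Each value is the fold change against the detergent-processed vehicle in its own replicate, from vsn-normalised intensities.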

| Target | NP40-soluble protein abundance |
| --- | --- |
| ZNF326 (UniProt Q5BKZ1) | 1.38 ± 0.21 |
| FKBP15 (UniProt Q5T1M5) | 0.975 ± 0.049 |
| RALBP1 (UniProt Q15311) | 0.956 ± 0.05 |
| C9orf64 (UniProt Q5T6V5) | 0.948 ± 0.03 |
| UniProt Q15652 and related entries | 1.04 ± 0.056 |
| OCIAD2 (UniProt Q56VL3) | 0.932 ± 0.012 |
| UniProt Q4V328 and related entries | 0.93 ± 0.12 |
| UniProt Q15054 and related entries | 0.915 ± 0.089 |
| BRD3 (UniProt Q15059) | 1.08 ± 0.14 |
| UniProt Q15329 and related entries | 0.92 ± 0.18 |
| UniProt Q15208 | 0.973 ± 0.19 |
| UniProt Q5T3I0 and related entries | 1.19 ± 0.17 |
| IFI16 (UniProt Q16666) | 1.22 ± 0.019 |
| UniProt Q15650 and related entries | 1.07 ± 0.13 |
| COX19 (UniProt Q49B96) | 0.982 ± 0.11 |
| TRIP11 (UniProt Q15643) | 0.973 ± 0.081 |
| UniProt Q15042 | 1.04 ± 0.031 |
| UniProt Q5SWX8 and related entries | 1.03 ± 0.11 |
| PUS10 (UniProt Q3MIT2) | 0.975 ± 0.049 |

| Target | NP40-soluble protein abundance |
| --- | --- |
| HNRNPA1L2 (UniProt Q32P51) | 1.49 ± 0.44 |
| PSME4 (UniProt Q14997) | 1.18 ± 0.18 |
| TBC1D10B (UniProt Q4KMP7) | 1.04 ± 0.034 |
| UniProt Q15438 and related entries | 0.975 ± 0.035 |
| KPNB1 (UniProt Q14974) | 0.989 ± 0.037 |
| PPP2R5A (UniProt Q15172) | 0.9 ± 0.033 |
| UBAP2 (UniProt Q5T6F2) | 0.928 ± 0.076 |
| SF3A1 (UniProt Q15459) | 1.03 ± 0.053 |
| ADRM1 (UniProt Q16186) | 1.12 ± 0.078 |
| UniProt Q14687 and related entries | 1.11 ± 0.081 |
| UniProt Q15542 and related entries | 1.25 ± 0.18 |
| SF3A2 (UniProt Q15428) | 1.08 ± 0.039 |
| UniProt Q15717 and related entries | 0.941 ± 0.027 |
| UniProt Q15853 and related entries | 0.919 ± 0.12 |
| UniProt Q52LJ0-2 | 0.947 ± 0.027 |
| UniProt Q15796 and related entries | 0.876 ± 0.034 |
| UniProt Q14694 and related entries | 1.07 ± 0.06 |
| UniProt Q15084 and related entries | 0.858 ± 0.064 |
| UniProt Q15545 and related entries | 1.12 ± 0.078 |

same assay, conditions: concentration: 4mM

| Target | NP40-soluble protein abundance |
| --- | --- |
| ZNF326 (UniProt Q5BKZ1) | 1.46 ± 0.32 |
| FKBP15 (UniProt Q5T1M5) | 0.99 ± 0.062 |
| RALBP1 (UniProt Q15311) | 0.975 ± 0.031 |
| C9orf64 (UniProt Q5T6V5) | 0.902 ± 0.035 |
| UniProt Q15652 and related entries | 1.08 ± 0.038 |
| OCIAD2 (UniProt Q56VL3) | 0.972 ± 0.014 |
| UniProt Q4V328 and related entries | 0.923 ± 0.097 |
| UniProt Q15054 and related entries | 0.916 ± 0.092 |
| BRD3 (UniProt Q15059) | 1.13 ± 0.088 |
| UniProt Q15329 and related entries | 0.99 ± 0.2 |
| UniProt Q15208 | 0.935 ± 0.098 |
| UniProt Q5T3I0 and related entries | 1.32 ± 0.24 |
| IFI16 (UniProt Q16666) | 1.27 ± 0.05 |
| UniProt Q15650 and related entries | 1.15 ± 0.1 |
| COX19 (UniProt Q49B96) | 1.09 ± 0.19 |
| TRIP11 (UniProt Q15643) | 0.972 ± 0.082 |
| UniProt Q15042 | 1.04 ± 0.055 |
| UniProt Q5SWX8 and related entries | 1 ± 0.073 |
| PUS10 (UniProt Q3MIT2) | 0.951 ± 0.012 |

| Target | NP40-soluble protein abundance |
| --- | --- |
| HNRNPA1L2 (UniProt Q32P51) | 1.47 ± 0.51 |
| PSME4 (UniProt Q14997) | 1.21 ± 0.18 |
| TBC1D10B (UniProt Q4KMP7) | 1 ± 0.0097 |
| UniProt Q15438 and related entries | 0.972 ± 0.053 |
| KPNB1 (UniProt Q14974) | 1.01 ± 0.041 |
| PPP2R5A (UniProt Q15172) | 0.877 ± 0.048 |
| UBAP2 (UniProt Q5T6F2) | 0.938 ± 0.071 |
| SF3A1 (UniProt Q15459) | 1.04 ± 0.034 |
| ADRM1 (UniProt Q16186) | 1.17 ± 0.12 |
| UniProt Q14687 and related entries | 1.14 ± 0.1 |
| UniProt Q15542 and related entries | 1.28 ± 0.18 |
| SF3A2 (UniProt Q15428) | 1.05 ± 0.052 |
| UniProt Q15717 and related entries | 0.941 ± 0.036 |
| UniProt Q15853 and related entries | 0.877 ± 0.099 |
| UniProt Q52LJ0-2 | 0.948 ± 0.02 |
| UniProt Q15796 and related entries | 0.857 ± 0.028 |
| UniProt Q14694 and related entries | 1.17 ± 0.061 |
| UniProt Q15084 and related entries | 0.828 ± 0.059 |
| UniProt Q15545 and related entries | 1.16 ± 0.041 |

same assay, conditions: concentration: 6mM

| Target | NP40-soluble protein abundance |
| --- | --- |
| ZNF326 (UniProt Q5BKZ1) | 1.44 ± 0.29 |
| FKBP15 (UniProt Q5T1M5) | 0.983 ± 0.049 |
| RALBP1 (UniProt Q15311) | 0.993 ± 0.021 |
| C9orf64 (UniProt Q5T6V5) | 0.884 ± 0.057 |
| UniProt Q15652 and related entries | 1.05 ± 0.028 |
| OCIAD2 (UniProt Q56VL3) | 0.862 ± 0.045 |
| UniProt Q4V328 and related entries | 0.909 ± 0.12 |
| UniProt Q15054 and related entries | 0.929 ± 0.078 |
| BRD3 (UniProt Q15059) | 1.11 ± 0.11 |
| UniProt Q15329 and related entries | 0.944 ± 0.16 |
| UniProt Q15208 | 0.907 ± 0.088 |
| UniProt Q5T3I0 and related entries | 1.33 ± 0.094 |
| IFI16 (UniProt Q16666) | 1.33 ± 0.047 |
| UniProt Q15650 and related entries | 1.13 ± 0.1 |
| COX19 (UniProt Q49B96) | 0.927 ± 0.13 |
| TRIP11 (UniProt Q15643) | 0.955 ± 0.061 |
| UniProt Q15042 | 1 ± 0.025 |
| UniProt Q5SWX8 and related entries | 0.9717 ± 0.0092 |
| PUS10 (UniProt Q3MIT2) | 0.958 ± 0.04 |

| Target | NP40-soluble protein abundance |
| --- | --- |
| HNRNPA1L2 (UniProt Q32P51) | 1.67 ± 0.65 |
| PSME4 (UniProt Q14997) | 1.16 ± 0.26 |
| TBC1D10B (UniProt Q4KMP7) | 1.01 ± 0.06 |
| UniProt Q15438 and related entries | 0.969 ± 0.039 |
| KPNB1 (UniProt Q14974) | 0.993 ± 0.033 |
| PPP2R5A (UniProt Q15172) | 0.864 ± 0.04 |
| UBAP2 (UniProt Q5T6F2) | 0.975 ± 0.086 |
| SF3A1 (UniProt Q15459) | 1.05 ± 0.047 |
| ADRM1 (UniProt Q16186) | 1.1 ± 0.098 |
| UniProt Q14687 and related entries | 1.13 ± 0.093 |
| UniProt Q15542 and related entries | 1.26 ± 0.16 |
| SF3A2 (UniProt Q15428) | 1.1 ± 0.027 |
| UniProt Q15717 and related entries | 0.949 ± 0.03 |
| UniProt Q15853 and related entries | 0.909 ± 0.088 |
| UniProt Q52LJ0-2 | 0.988 ± 0.023 |
| UniProt Q15796 and related entries | 0.879 ± 0.056 |
| UniProt Q14694 and related entries | 1.24 ± 0.035 |
| UniProt Q15084 and related entries | 0.865 ± 0.066 |
| UniProt Q15545 and related entries | 1.17 ± 0.07 |
